From publication PMC8703407
Results are given in words; binding and its absence hold for the method and conditions named. In cells and extracts the contact can be indirect.

Sequences of proteins named here, by UniProt entry; tags and fusion partners are left off.
UniProt Q9HC16: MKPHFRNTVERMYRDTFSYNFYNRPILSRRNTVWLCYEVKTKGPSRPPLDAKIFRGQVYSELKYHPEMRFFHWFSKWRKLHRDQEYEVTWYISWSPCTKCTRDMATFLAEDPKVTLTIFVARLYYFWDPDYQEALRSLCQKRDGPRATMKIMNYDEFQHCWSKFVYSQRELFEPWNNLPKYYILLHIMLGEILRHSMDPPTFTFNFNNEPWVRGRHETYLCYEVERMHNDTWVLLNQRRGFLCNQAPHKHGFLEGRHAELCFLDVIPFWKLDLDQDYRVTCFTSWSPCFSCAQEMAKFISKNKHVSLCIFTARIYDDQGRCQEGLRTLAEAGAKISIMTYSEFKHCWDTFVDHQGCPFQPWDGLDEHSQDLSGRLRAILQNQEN

Biological target: APOBEC3G HA (UniProt Q9HC16)
Assay: co-IP; anti-HA beads, lysate of HEK293T cells co-transfected with HA-tagged and His-tagged A3G, sample treated with RNase A (70 μg/mL); blot with anti-His

APOBEC3G HA (from UniProt Q9HC16 1-384) was tested, and the binding was “no binding (condition: with RNase A treatment)”.
